{"sequences": {"note": "The chains behind the UniProt entries cited, without tags or fusion partners. Where a name states a change or a piece, a line headed by the entry shows the natural chain unless it says otherwise.", "UniProt Q9Y5C1": "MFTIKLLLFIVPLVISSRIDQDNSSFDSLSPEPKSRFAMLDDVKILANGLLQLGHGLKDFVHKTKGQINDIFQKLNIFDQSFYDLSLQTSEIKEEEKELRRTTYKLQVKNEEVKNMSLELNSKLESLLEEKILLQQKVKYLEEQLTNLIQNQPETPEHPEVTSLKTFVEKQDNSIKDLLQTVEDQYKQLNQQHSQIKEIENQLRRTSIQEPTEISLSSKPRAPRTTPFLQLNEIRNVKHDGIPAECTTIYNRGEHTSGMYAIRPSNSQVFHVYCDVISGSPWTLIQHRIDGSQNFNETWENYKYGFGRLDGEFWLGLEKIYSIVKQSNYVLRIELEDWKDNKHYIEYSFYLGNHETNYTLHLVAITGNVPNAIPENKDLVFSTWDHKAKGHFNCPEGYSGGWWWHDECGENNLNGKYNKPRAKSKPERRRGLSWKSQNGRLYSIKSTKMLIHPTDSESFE", "UniProt Q8WVL7": "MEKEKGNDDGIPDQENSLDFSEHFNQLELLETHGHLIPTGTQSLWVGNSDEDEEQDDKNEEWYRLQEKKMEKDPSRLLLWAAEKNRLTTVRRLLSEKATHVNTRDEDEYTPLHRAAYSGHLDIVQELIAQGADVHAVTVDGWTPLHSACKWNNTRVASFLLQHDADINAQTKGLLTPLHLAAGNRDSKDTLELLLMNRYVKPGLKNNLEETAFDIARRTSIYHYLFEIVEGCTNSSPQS", "UniProt Q14155": "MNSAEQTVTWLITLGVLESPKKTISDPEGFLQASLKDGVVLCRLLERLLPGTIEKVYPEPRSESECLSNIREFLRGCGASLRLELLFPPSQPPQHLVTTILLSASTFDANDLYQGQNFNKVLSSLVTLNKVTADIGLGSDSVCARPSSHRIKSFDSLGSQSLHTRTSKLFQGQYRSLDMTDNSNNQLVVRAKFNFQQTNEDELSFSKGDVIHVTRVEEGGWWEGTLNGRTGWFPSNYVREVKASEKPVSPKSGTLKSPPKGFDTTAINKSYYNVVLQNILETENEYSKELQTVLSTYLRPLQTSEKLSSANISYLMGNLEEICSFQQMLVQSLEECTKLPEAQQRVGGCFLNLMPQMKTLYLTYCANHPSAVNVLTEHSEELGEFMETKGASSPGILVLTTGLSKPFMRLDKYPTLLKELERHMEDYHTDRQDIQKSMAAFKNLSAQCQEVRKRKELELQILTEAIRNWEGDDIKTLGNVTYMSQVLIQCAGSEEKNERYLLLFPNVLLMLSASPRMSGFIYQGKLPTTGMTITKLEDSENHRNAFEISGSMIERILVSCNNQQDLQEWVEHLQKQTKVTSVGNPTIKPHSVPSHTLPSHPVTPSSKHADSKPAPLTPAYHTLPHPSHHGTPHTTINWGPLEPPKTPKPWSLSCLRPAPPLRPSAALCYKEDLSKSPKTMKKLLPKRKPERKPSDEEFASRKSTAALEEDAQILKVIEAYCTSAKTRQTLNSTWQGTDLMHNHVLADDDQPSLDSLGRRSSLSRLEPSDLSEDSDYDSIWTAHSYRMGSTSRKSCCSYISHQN", "UniProt Q96P48": "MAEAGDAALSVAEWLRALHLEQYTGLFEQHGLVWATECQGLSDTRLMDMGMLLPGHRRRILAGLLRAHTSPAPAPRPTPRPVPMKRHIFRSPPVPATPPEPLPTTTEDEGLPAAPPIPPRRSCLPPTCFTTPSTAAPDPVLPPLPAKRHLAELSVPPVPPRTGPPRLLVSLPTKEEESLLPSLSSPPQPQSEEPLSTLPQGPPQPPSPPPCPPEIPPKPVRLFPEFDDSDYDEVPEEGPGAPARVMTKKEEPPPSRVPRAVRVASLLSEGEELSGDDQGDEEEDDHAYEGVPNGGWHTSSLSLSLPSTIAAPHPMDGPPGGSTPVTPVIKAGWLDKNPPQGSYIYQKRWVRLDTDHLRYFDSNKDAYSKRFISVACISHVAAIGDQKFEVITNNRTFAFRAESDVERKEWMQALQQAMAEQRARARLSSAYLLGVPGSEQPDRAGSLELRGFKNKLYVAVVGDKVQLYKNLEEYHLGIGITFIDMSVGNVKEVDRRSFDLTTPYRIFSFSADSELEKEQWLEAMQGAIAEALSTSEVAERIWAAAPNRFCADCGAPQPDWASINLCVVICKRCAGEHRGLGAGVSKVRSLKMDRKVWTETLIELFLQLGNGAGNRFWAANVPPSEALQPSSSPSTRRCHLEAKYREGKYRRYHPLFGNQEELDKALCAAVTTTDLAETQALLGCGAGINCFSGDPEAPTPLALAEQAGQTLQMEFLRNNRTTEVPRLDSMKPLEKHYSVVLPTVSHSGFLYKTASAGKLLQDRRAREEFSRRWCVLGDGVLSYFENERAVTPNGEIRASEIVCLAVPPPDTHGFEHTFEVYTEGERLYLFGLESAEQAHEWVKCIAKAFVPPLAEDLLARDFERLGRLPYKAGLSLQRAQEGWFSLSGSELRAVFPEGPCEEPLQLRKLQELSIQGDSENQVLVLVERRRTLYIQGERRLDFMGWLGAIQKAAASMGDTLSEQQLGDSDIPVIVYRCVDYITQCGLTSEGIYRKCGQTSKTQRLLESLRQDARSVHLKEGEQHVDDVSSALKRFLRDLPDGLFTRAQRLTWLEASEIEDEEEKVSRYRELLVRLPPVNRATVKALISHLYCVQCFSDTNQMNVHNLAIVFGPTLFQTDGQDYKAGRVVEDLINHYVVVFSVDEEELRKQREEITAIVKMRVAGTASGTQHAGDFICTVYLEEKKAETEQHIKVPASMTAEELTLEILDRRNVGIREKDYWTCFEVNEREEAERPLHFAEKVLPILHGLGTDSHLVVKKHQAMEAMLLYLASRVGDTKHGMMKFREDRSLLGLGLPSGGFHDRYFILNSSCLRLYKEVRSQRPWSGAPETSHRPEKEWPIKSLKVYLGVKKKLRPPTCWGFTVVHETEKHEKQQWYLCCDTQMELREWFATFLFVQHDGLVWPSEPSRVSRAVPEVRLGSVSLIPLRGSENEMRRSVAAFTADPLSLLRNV", "UniProt Q9NP61": "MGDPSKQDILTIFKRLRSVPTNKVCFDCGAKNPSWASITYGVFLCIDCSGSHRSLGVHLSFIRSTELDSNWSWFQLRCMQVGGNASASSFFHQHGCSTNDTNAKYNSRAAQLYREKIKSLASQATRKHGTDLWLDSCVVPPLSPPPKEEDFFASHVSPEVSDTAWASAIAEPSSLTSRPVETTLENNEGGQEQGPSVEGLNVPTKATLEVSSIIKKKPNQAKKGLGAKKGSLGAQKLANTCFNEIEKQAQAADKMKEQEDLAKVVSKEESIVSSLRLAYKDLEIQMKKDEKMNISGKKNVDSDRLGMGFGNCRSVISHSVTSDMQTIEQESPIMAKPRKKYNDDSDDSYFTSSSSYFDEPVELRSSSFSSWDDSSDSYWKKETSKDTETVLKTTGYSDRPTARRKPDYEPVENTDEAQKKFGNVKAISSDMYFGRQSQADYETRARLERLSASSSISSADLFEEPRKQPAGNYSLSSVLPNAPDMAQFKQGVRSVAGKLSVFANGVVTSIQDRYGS", "UniProt P02647, whole entry, looked up": "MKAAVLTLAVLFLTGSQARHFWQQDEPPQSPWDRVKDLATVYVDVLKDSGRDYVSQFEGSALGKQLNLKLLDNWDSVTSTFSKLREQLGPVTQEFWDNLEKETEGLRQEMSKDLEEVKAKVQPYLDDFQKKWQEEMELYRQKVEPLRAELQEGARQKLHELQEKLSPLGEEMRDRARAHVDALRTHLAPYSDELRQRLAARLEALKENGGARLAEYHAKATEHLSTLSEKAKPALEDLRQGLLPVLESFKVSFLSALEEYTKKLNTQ", "UniProt Q9HDC9": "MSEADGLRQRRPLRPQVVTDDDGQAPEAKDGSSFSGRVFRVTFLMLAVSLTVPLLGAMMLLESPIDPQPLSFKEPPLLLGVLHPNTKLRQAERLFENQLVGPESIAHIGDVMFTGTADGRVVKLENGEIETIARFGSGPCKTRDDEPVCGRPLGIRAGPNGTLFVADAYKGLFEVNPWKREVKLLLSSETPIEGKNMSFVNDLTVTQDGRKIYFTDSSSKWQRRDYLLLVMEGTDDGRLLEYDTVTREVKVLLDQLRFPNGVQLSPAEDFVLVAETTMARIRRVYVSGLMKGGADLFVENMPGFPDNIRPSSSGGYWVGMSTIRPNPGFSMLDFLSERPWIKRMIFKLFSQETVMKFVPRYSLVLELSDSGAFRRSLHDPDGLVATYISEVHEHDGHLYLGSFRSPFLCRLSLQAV", "UniProt Q10567": "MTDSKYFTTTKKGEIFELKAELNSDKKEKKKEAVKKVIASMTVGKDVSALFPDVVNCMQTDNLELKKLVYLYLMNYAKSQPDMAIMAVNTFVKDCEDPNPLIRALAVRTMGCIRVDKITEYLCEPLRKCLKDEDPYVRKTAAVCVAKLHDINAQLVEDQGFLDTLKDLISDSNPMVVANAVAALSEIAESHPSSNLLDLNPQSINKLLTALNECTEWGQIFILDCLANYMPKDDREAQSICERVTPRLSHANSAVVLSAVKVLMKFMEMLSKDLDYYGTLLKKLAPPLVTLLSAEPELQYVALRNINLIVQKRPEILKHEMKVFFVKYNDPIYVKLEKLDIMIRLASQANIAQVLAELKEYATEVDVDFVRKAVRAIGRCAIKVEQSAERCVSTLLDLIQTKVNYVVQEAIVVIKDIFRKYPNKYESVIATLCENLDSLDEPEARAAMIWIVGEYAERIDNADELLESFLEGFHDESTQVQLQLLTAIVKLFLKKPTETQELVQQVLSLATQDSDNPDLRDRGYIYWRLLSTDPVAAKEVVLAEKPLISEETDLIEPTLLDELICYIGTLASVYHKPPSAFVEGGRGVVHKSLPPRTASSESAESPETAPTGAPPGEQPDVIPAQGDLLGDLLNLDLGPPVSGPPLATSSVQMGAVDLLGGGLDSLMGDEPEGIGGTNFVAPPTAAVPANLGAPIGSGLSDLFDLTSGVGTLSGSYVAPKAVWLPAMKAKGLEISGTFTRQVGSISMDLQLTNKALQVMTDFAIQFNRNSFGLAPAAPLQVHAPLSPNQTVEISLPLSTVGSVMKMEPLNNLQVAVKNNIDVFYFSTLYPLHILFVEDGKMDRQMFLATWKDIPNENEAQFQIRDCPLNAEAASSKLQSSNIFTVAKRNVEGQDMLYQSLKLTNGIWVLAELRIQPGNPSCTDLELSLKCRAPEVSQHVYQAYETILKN", "UniProt P08758": "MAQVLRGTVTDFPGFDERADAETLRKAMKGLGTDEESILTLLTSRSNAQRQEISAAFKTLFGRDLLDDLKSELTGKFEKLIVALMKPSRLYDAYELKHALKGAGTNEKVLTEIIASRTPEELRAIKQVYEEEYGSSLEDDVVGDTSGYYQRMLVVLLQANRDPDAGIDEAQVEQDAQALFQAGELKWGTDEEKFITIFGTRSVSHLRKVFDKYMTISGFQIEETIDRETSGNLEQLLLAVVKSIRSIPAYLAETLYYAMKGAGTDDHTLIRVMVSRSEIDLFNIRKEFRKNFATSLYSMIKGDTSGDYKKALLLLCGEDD", "UniProt Q9BUR5": "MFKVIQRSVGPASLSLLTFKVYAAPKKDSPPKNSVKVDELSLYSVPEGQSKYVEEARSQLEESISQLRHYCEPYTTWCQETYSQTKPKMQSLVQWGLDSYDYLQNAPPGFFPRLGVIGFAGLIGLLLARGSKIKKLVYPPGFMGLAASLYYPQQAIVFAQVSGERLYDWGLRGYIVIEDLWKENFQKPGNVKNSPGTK", "UniProt O43747": "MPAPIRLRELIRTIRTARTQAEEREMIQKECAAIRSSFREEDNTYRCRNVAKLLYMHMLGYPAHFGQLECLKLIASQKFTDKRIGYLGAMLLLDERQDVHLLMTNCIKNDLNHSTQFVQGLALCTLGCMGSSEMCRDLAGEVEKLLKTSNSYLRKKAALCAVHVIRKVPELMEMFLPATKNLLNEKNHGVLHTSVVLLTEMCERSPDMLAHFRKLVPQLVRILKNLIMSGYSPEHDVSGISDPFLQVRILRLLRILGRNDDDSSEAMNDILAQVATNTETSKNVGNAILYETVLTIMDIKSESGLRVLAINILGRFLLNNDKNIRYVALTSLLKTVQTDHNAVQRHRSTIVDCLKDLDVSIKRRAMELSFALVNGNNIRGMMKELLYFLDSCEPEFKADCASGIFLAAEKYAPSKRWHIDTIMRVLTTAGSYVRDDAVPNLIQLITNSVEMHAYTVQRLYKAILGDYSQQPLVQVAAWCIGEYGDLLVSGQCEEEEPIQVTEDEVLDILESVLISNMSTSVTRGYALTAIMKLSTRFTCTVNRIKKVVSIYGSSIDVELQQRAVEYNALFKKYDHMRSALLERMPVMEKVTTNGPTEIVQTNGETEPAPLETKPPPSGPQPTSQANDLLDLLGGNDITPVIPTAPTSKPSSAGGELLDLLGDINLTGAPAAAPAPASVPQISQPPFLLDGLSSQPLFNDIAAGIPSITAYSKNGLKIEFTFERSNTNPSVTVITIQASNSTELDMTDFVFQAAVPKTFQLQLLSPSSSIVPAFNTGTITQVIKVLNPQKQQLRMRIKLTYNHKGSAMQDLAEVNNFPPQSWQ"}, "source": "the supplement of paper PMC10849652", "note": "The list shows a part of the results."}
{"compound": "CS(=O)(=O)CCNCc1ccc(-c2ccc3ncnc(Nc4ccc(OCc5cccc(F)c5)c(Cl)c4)c3c2)o1 [lapatinib]", "assay": "log2 fold change, soluble protein after heating vs DMSO (PISA); higher = thermal stabilisation; K562 cells, 10 uM, 30 min; active = over 0.2 and 3.5 SD of the protein, either way, in both replicates (recomputed)", "procedure,_shortened": "(§1)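 K562 cells (2×10^6 cells/mL) were treated with 10 μM compound for 30 min, and aliquots were heated for 3 min over 48°C-58°C. Pooled aliquots were extracted in PBS with 0.5% NP-40 at 4°C, and the supernatant after 21,000xg for 90 min was measured by TMTpro 16plex LC-MS/MS with channel sums equalised. Reported thermal stability, relative to control samples and from duplicates, is a log2 fold change.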"}
{"target": "ANGPTL3 (UniProt Q9Y5C1)", "log2 fold change": "inactive: -0.075"}
{"target": "AP2B1 isoform 2 (UniProt P63010)", "log2 fold change": "inactive: 0.049"}
{"target": "ANKMY2 (UniProt Q8IV38)", "log2 fold change": "inactive: 0.027"}
{"target": "AP2A1 (UniProt O95782)", "log2 fold change": "inactive: 0.027"}
{"target": "ANK1 isoform 14 (UniProt P16157)", "log2 fold change": "inactive: 0.074"}
{"target": "AQR (UniProt O60306)", "log2 fold change": "inactive: 0.007"}
{"target": "ARHGAP1 (UniProt Q07960)", "log2 fold change": "inactive: -0.035"}
{"target": "ANKRD13A (UniProt Q8IZ07)", "log2 fold change": "inactive: 0.05"}
{"target": "ANKRD49 (UniProt Q8WVL7)", "log2 fold change": "inactive: 0.07"}
{"target": "APOOL (UniProt Q6UXV4)", "log2 fold change": "inactive: -0.003"}
{"target": "ARID1A (UniProt O14497)", "log2 fold change": "inactive: 0.019"}
{"target": "ARFGEF2 (UniProt Q9Y6D5)", "log2 fold change": "inactive: -0.003"}
{"target": "ARHGEF12 (UniProt Q9NZN5)", "log2 fold change": "inactive: 0.124"}
{"target": "ARHGEF7 isoform 5 (UniProt Q14155)", "log2 fold change": "inactive: -0.068"}
{"target": "ARAP1 (UniProt Q96P48)", "log2 fold change": "inactive: 0.38"}
{"target": "ANXA3 (UniProt P12429)", "log2 fold change": "inactive: 0.029"}
{"target": "ARFGAP3 (UniProt Q9NP61)", "log2 fold change": "inactive: 0.039"}
{"target": "APOA1 (UniProt P02647)", "log2 fold change": "inactive: 0.057"}
{"target": "APMAP (UniProt Q9HDC9)", "log2 fold change": "inactive: -0.023"}
{"target": "APOBR (UniProt Q0VD83)", "log2 fold change": "inactive: -0.046"}
{"target": "APOBEC3G (UniProt Q9HC16)", "log2 fold change": "inactive: 0.046"}
{"target": "AP1B1 (UniProt Q10567)", "log2 fold change": "inactive: 0.091"}
{"target": "APIP (UniProt Q96GX9)", "log2 fold change": "inactive: 0.005"}
{"target": "APOBEC3D (UniProt Q96AK3)", "log2 fold change": "inactive: 0.188"}
{"target": "AP5M1 (UniProt Q9H0R1)", "log2 fold change": "inactive: 0.118"}
{"target": "ANXA5 (UniProt P08758)", "log2 fold change": "inactive: 0.015"}
{"target": "ARFGAP1 (UniProt Q8N6T3)", "log2 fold change": "inactive: -0.038"}
{"target": "APOO (UniProt Q9BUR5)", "log2 fold change": "inactive: 0.007"}
{"target": "APLP2 (UniProt Q06481)", "log2 fold change": "inactive: 0.09"}
{"target": "APOM (UniProt O95445)", "log2 fold change": "inactive: -0.11"}
{"target": "AP1G1 isoform 2 (UniProt O43747)", "log2 fold change": "inactive: 0.034"}
{"target": "APOB (UniProt P04114)", "log2 fold change": "inactive: -0.352"}
{"target": "ANAPC5 (UniProt Q9UJX4)", "log2 fold change": "inactive: 0.056"}
{"target": "ARHGAP12 (UniProt Q8IWW6)", "log2 fold change": "inactive: 0.01"}
{"compound": "CS(=O)(=O)N1CCN(Cc2cc3nc(-c4cccc5[nH]ncc45)nc(N4CCOCC4)c3s2)CC1 [pictilisib]", "assay": "log2 fold change, soluble protein after heating vs DMSO (PISA); higher = thermal stabilisation; K562 cells, 10 uM, 30 min; active = over 0.2 and 3.5 SD of the protein, either way, in both replicates (recomputed)", "procedure,_shortened": "as §1"}
{"target": "AP2B1 isoform 2 (UniProt P63010)", "log2 fold change": "inactive: 0.015"}
{"target": "ANTKMT (UniProt Q9BQD7)", "log2 fold change": "inactive: 0.246"}
{"target": "ANKMY2 (UniProt Q8IV38)", "log2 fold change": "inactive: -0.034"}
{"target": "AP4B1 (UniProt Q9Y6B7)", "log2 fold change": "inactive: -0.081"}
{"target": "AP2A1 (UniProt O95782)", "log2 fold change": "inactive: -0.042"}
{"target": "ANK1 isoform 14 (UniProt P16157)", "log2 fold change": "inactive: -0.035"}
{"target": "AQR (UniProt O60306)", "log2 fold change": "inactive: -0.116"}
{"target": "ARHGAP1 (UniProt Q07960)", "log2 fold change": "inactive: 0.024"}
{"target": "ANKRD13A (UniProt Q8IZ07)", "log2 fold change": "inactive: 0.046"}
{"target": "ANKRD49 (UniProt Q8WVL7)", "log2 fold change": "inactive: 0.127"}
{"target": "APOOL (UniProt Q6UXV4)", "log2 fold change": "inactive: 0.013"}
{"target": "ARID1A (UniProt O14497)", "log2 fold change": "inactive: 0.022"}
{"target": "ARFGEF2 (UniProt Q9Y6D5)", "log2 fold change": "inactive: 0.046"}
{"target": "ARHGEF7 isoform 5 (UniProt Q14155)", "log2 fold change": "inactive: 0.112"}
{"target": "ARAP1 (UniProt Q96P48)", "log2 fold change": "inactive: 0"}
{"target": "ANXA3 (UniProt P12429)", "log2 fold change": "inactive: -0.056"}
{"target": "ARFGAP3 (UniProt Q9NP61)", "log2 fold change": "inactive: -0.021"}
{"target": "APTX (UniProt Q7Z2E3)", "log2 fold change": "inactive: 0.056"}
{"target": "APOA1 (UniProt P02647)", "log2 fold change": "inactive: 0.064"}
{"target": "APMAP (UniProt Q9HDC9)", "log2 fold change": "inactive: 0.018"}
{"target": "APOBR (UniProt Q0VD83)", "log2 fold change": "inactive: 0.042"}
{"target": "AP1B1 (UniProt Q10567)", "log2 fold change": "inactive: 0.043"}
{"target": "APIP (UniProt Q96GX9)", "log2 fold change": "inactive: 0.058"}
{"target": "AP5M1 (UniProt Q9H0R1)", "log2 fold change": "inactive: -0.022"}
{"target": "ANXA5 (UniProt P08758)", "log2 fold change": "inactive: -0.021"}
{"target": "ARFGAP1 (UniProt Q8N6T3)", "log2 fold change": "inactive: -0.007"}
{"target": "APOO (UniProt Q9BUR5)", "log2 fold change": "inactive: -0.021"}
{"target": "APLP2 (UniProt Q06481)", "log2 fold change": "inactive: 0.091"}
{"target": "APOM (UniProt O95445)", "log2 fold change": "inactive: 0.098"}
{"target": "AP1G1 isoform 2 (UniProt O43747)", "log2 fold change": "inactive: 0.002"}
{"target": "APOB (UniProt P04114)", "log2 fold change": "inactive: 0.078"}
{"target": "ANAPC5 (UniProt Q9UJX4)", "log2 fold change": "inactive: -0.064"}
{"target": "ARHGAP12 (UniProt Q8IWW6)", "log2 fold change": "inactive: 0.016"}
